The values below come from PubChem BioAssay AID2685 (National Center for Advancing Translational Sciences (NCATS), 2010).

The structures appear in SMILES notation. This is one part of the list. Shown are side measurements of this screen, not its main read-out; they come without a call. The list favours compounds with an active or inconclusive main result. The note in brackets gives the kind of curve behind each potency; many fits are weak.

The assay can be described thus: qHTS Assay for Lipid Storage Modulators in Drosophila S3 Cells.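 For cell number change: cells counted by Cell Tracker Red CMTPX staining in the red channel.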 Particulars: BODIPY lipid droplet fluorescence, 18-24 h; for cell number change: measured here: cell count max response, cells fed with added oleic acid. The essentials: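 Laser-scanning cytometry quantifies lipid droplet accumulation (500–530 nm total intensity; droplet/cell object ratio) in oleic acid-fed (400 uM added) Drosophila S3 cells treated with a concentration series. 20 uM Triacsin C defined 100% inhibition.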
On the technique in general: Quantitative high-throughput screening tests each substance at several concentrations.

Setting [1] is: measured here: cell number channel AC50, cells fed with added oleic acid.
The mark [2] stands for this setting: measured here: lipid fluorescence (Fed channel) AC50, cells fed with added oleic acid.

`Cn1c2ccccc2c2cc([N+](=O)[O-])ccc21`: the cell number change is 4.59%. Moreover, the concentration at half-maximal activity (AC50) under setting [1] is 0.206 µM [rising, full curve, poor fit]. The AC50 under setting [2] was 2.59 µM [rising, partial curve, poor fit].

Take `COc1ccc(NC(=O)NC23CC4CC(CC(C4)C2)C3)cc1OC`: the half-maximal activity concentration (AC50) under setting [2] was 0.92 µM [rising, full curve].

Regarding `CCOC(=O)c1cnn(-c2cc(C)cc(C)c2)c1N`, the concentration at half-maximal activity (AC50) under setting [1] was 0.116 µM [rising, full curve, poor fit] and the AC50 under setting [2] was 0.103 µM [rising, full curve, poor fit]. Consider `O=C(c1ccc(CS(=O)(=O)c2ccc(Br)cc2)o1)N1CCN(c2ncccn2)CC1`, for which the cell number change was -49.9%. Besides, under setting [1], the AC50 is 11.6 µM [falling, partial curve, poor fit]. For `CCOCCCn1c(=S)[nH]c2cc(C(=O)NCCN(CC)CC)ccc2c1=O`, the cell number change amounted to 6.26%. As for `Cn1c(=O)c2c(nc(NCCCO)n2C/C=C/c2ccccc2)n(C)c1=O`, under setting [2], the AC50 was 11.6 µM [falling, partial curve].

On to `O=C(COC(=O)CNC(=O)c1ccccc1F)Nc1cccnc1Cl`, for which the cell number change is -20.8%. Regarding `O=C(COc1ccc([N+](=O)[O-])cc1)NNC(=S)NC(=O)c1ccc(Br)cc1`, the cell number change worked out at 93.5%. The AC50 under setting [1] was 18.4 µM [rising, partial curve]. Also, under setting [2], the concentration at half-maximal activity (AC50) is 16.4 µM [rising, single point]. As for `COc1ccc(C2C(C#N)=C(N)N(c3sc4c(c3C#N)CCCC4)C3=C2C(=O)CC(C)(C)C3)cc1` (configuration not stated), the cell number change came out at 8.41%. In addition, the AC50 under setting [1] is 0.103 µM [rising, full curve, poor fit].

For the compound `CCCCSc1nnc2n(CCc3ccccc3)c(=O)c3c4c(sc3n12)COC(C)(C)C4`, the cell number change is -22.2%. Besides, the concentration at half-maximal activity (AC50) under setting [1] was 0.651 µM [falling, full curve]. Besides, the AC50 under setting [2] was 29.1 µM [falling, single point]. Turning to `CCCCOc1ccc(Cl)cc1CSc1nncn1N`, the AC50 under setting [1] was 2.06 µM [rising, partial curve] and the AC50 under setting [2] was 6.51 µM [rising, single point].

For `COc1ccc(NC(=S)N2CCN(c3ncccn3)CC2)cc1`, the cell number change came out at 19.9%. The AC50 under setting [1] was 3.66 µM [rising, single point]. In addition, the AC50 under setting [2] was 29.1 µM [rising, single point]. As to `CN=C(Nc1ccc(C)c(C)c1)SC1CC(=O)N(c2ccc(OC)cc2)C1=O` (configuration not stated), the cell number change was -6.53%. Moreover, the AC50 under setting [2] is 0.0291 µM [falling, full curve, poor fit].

Consider `Cc1ccc(C(C2C(=O)CC(C)(C)CC2=O)C2C(=O)CC(C)(C)CC2=O)s1`, for which the cell number change is 11.2%.

With `O=C(C1CCCCCC1)N1CC[C@@H](N2CCC(O)CC2)[C@H](O)C1`, the cell number change is -17.1%. Take `CN(C)c1ccc(NC(=S)NC(=O)/C=C/c2ccc(Cl)cc2)cc1`: the AC50 under setting [2] is 6.51 µM [rising, single point]. Consider `O=C(CCS(=O)(=O)c1cccs1)Nc1ccc(C(=O)NCc2ccccc2)cc1`, for which the AC50 under setting [1] is 1.84 µM [rising, partial curve]. `O=C(N/N=C/c1ccccn1)c1cc(-c2ccccc2Cl)n[nH]1`: the AC50 under setting [2] was 23.1 µM [falling, partial curve]. For the compound `CCCCCCOc1ccc(C(CC(N)=O)C(=O)O)cc1` (configuration not stated), the cell number change was -19.2%.

Take `CC(C)(C)c1ccc(OCc2ccc(C(=O)Nc3cccnc3)o2)cc1`: the cell number change was -22.2%. Consider `Cc1nc(S(=O)(=O)N(C)c2ccccc2)c(C#N)c(C)c1Cl`, for which the cell number change was -15.2%. In addition, the AC50 under setting [2] is 16.4 µM [falling, partial curve]. Take `N#C/C(=C\c1cccc(Oc2ccccc2)c1)C(=O)N1CCOCC1`: the cell number change was -33.8%. The AC50 under setting [1] was 0.82 µM [falling, partial curve, poor fit].

In the case of `O=c1c(Sc2ccccc2)c(C(F)(F)F)[nH]n1-c1ccccc1`, the cell number change is -5.22%. For the compound `COc1cccc(C(=O)Nc2ccc3nc(N4CCN(c5ncccn5)CC4)cc(C)c3c2)c1OC`, the cell number change came out at 38.6%. Besides, the AC50 under setting [1] is 29.1 µM [rising, single point]. Under setting [2], the AC50 was 29.1 µM [rising, single point]. On to `COc1ccc(CN(C)C(=O)C2CSC3(C)CCC(=O)N23)cc1OC` (configuration not stated), for which the cell number change is -32.8%. Further, the half-maximal activity concentration (AC50) under setting [1] was 29.1 µM [falling, single point]. Besides, the AC50 under setting [2] was 18.4 µM [falling, single point].

As to `CCOc1ccc(C(=O)NC(=S)Nc2ccccn2)cc1[N+](=O)[O-]`, the AC50 under setting [2] was 0.231 µM [rising, full curve, poor fit]. For the compound `O=C(CCCn1c(=O)[nH]c2ccccc2c1=O)N1CCN(c2ccccn2)CC1`, the cell number change came out at 15.8%. Also, the AC50 under setting [2] was 6.51 µM [rising, single point]. As to `Cc1nc(N)nc2c1CCCC2`, the cell number change was determined as 9.69%. Moreover, the half-maximal activity concentration (AC50) under setting [2] was 25.9 µM [falling, partial curve].

Regarding `CC1CC(C)CN(C(=O)CN2C(=O)NC(C)(C)C2=O)C1` (configuration not stated), the cell number change was 100%. Under setting [1], the AC50 was 29.1 µM [rising, single point]. Moreover, under setting [2], the AC50 is 10.3 µM [rising, partial curve]. With `Cc1cc2ncc(C(=O)Nc3ccccc3)c(C)n2n1`, the cell number change is -61%. Also, the AC50 under setting [1] was 8.2 µM [falling, partial curve, poor fit]. Also, the AC50 under setting [2] is 18.4 µM [falling, partial curve]. Turning to `CCC1CCCCN1Cc1cc(OC)c(O)c([N+](=O)[O-])c1` (configuration not stated), the cell number change is -88.3%. The AC50 under setting [1] was 11.6 µM [falling, partial curve]. As for `O=C(Nc1nnc(SCC(=O)N2CCCCC2)s1)c1ccc(F)cc1F`, the cell number change was found to be 1.28%. Also, the concentration at half-maximal activity (AC50) under setting [2] was 0.461 µM [rising, single point]. On to `CCOc1ccc(/C=C/C(=O)c2cc(Br)ccc(=O)c2O)cc1`, for which the cell number change was -51.8%. The AC50 under setting [1] was 20.6 µM [falling, single point]. With `Cc1ccc(NC(=O)c2cc3c(s2)CCC3)cc1S(=O)(=O)N1CCOCC1`, the cell number change was 10.9%. Besides, the AC50 under setting [2] was 3.66 µM [rising, partial curve]. `NC(=O)COC(=O)c1ccccc1OCc1ccccc1Cl`: the cell number change was determined as 63.1%. Under setting [2], the AC50 was 0.58 µM [rising, full curve, poor fit]. On to `COc1ccc(S(=O)(=O)N2CCCCCC2)cc1C(=O)NCc1ccccc1Cl`, for which the cell number change was determined as 68.4%. Further, the AC50 under setting [1] is 29.1 µM [rising, single point]. Regarding `Cc1cc(C)cc(N(C(=O)c2csnn2)C(C(=O)NC2CCCCC2)c2ccccn2)c1` (configuration not stated), the cell number change was 23.1%. Turning to `COc1ccc(C2C(C(=O)N3CCN(C)CC3)c3cc(OC)c(OC)cc3C(=O)N2C)cc1` (configuration not stated), under setting [2], the AC50 is 2.31 µM [falling, single point]. For the compound `Cc1ccc(NS(=O)(=O)c2ccc(NC(=O)C3CC3)cc2)cc1C`, the cell number change was -51.7%. Besides, the AC50 under setting [1] was 32.6 µM [falling, partial curve]. Regarding `O=[N+]([O-])c1ccccc1/C=C/C=N/n1c(-c2cc(-c3ccccc3)n[nH]2)n[nH]c1=S`, the cell number change is -64.2%. Under setting [1], the AC50 was 16.4 µM [falling, partial curve]. Moreover, the AC50 under setting [2] is 20.6 µM [falling, partial curve, poor fit]. With `COC(=O)c1ccccc1NC(=O)Cn1nc2n(C)c3ccccc3n2c(=O)c1=O`, the cell number change came to 12.6%. Besides, the AC50 under setting [2] is 0.651 µM [rising, single point]. In the case of `Cc1ccc(Nc2cc(C)nc(N3CCOCC3)n2)c(C)c1`, the cell number change is -3.43%. In addition, the AC50 under setting [2] was 2.06 µM [rising, full curve]. For `CN(CCC#N)C(=O)COC(=O)c1ccc(Cl)cc1O`, the cell number change is -41.7%. Also, the AC50 under setting [1] is 1.03 µM [falling, full curve]. With `O=S(=O)(Nc1cccc(-c2ccc(N3CCOCC3)nn2)c1)c1cc(Cl)ccc1Cl`, the cell number change was 33%. Under setting [1], the AC50 was 9.2 µM [rising, partial curve, poor fit]. Also, the AC50 under setting [2] was 0.411 µM [rising, full curve, poor fit].

For the compound `COC(=O)N/N=C/c1cc(OC)c(O)c([N+](=O)[O-])c1`, the cell number change was -41.4%. Moreover, the AC50 under setting [1] was 4.61 µM [falling, full curve]. For the same compound, under setting [2], the AC50 was 0.259 µM [falling, full curve].

For `CCn1cc(C(=O)N2CC(C)CC(C)C2)c(=O)c2cc(S(=O)(=O)N3CCCC3)ccc21` (configuration not stated), the cell number change turned out to be 1.83%. For the compound `CCOC(=O)C1CCN(C(=O)CC2(CC(=O)O)CCCC2)CC1`, the cell number change was 6.41%. For the same compound, the AC50 under setting [2] was 29.1 µM [rising, single point]. Regarding `O=C(NCCc1ccc(F)cc1)N[C@@H](Cc1ccccc1)C(=O)O`, the cell number change is -4.96%. With `CCC(=O)Nc1ccccc1C(=O)N1CCOCC1`, the cell number change is 1.62%. Besides, under setting [2], the AC50 was 0.517 µM [falling, full curve, poor fit]. With `N#Cc1c(N)nc2c(c1N)CC(COc1ccccc1)O2` (configuration not stated), the cell number change is -23.2%. Turning to `O=C1CC(c2cccs2)CC2=C1C(c1ccccc1)n1ncnc1N2` (configuration not stated), the cell number change was found to be 3.99%. Under setting [2], the AC50 was 6.51 µM [falling, single point]. Take `COc1ccc(NC(=O)CSc2nnc(-c3ccccc3)n2Cc2ccco2)cc1OC`: the cell number change is -4.83%.

For `COc1ccc(C)cc1NS(=O)(=O)c1ccc(-c2cnc(C3CC3)o2)cc1`, the cell number change was -35.4%. Also, under setting [1], the AC50 is 4.11 µM [falling, full curve, poor fit].

In the case of `COc1ccc(-c2cc(C3CCN(c4ccc(C(C)=O)cc4[N+](=O)[O-])CC3)[nH]n2)cc1`, the cell number change is -23.6%. The AC50 under setting [2] is 16.4 µM [falling, single point]. Consider `O=C(c1cc(-c2ccccc2Cl)nc2ccccc12)N1CCN(c2ccccc2O)CC1`, for which the cell number change worked out at 55.8%. For the same compound, the AC50 under setting [1] is 18.4 µM [rising, single point].

For the compound `Cc1cc(S(=O)(=O)NCc2ccc3c(c2)OCO3)ccc1F`, the cell number change was 10.5%. For `CNC(=S)N/N=C(\C)c1ccc(C)c(C)c1`, the cell number change was -1.88%. In addition, the concentration at half-maximal activity (AC50) under setting [2] was 0.92 µM [falling, partial curve, poor fit]. For the compound `O=C(N1CCOCC1)N1CCN(S(=O)(=O)c2ccccc2)C1`, the cell number change was -7%. Further, the concentration at half-maximal activity (AC50) under setting [2] was 1.3 µM [falling, full curve, poor fit]. Take `CCOc1cc(N2CCOCC2)c(OCC)cc1NC(=O)COC(=O)c1cccc2ccccc12`: the cell number change was 8.76%. Further, the AC50 under setting [1] was 0.82 µM [falling, single point]. Moreover, under setting [2], the AC50 was 1.16 µM [falling, single point]. Regarding `COc1cc(OC)cc(C(=O)NCC(=O)N2CCN(c3ccc(O)cc3)CC2)c1`, the cell number change amounted to 30.2%. Under setting [1], the AC50 was 6.51 µM [rising, full curve, poor fit].

What is called AC50 is the midpoint of the concentration-response curve, whichever way the signal moves. High values mean weaker potency, low ones greater potency.
